The whole screen tested about 310,000 compounds, of which about 17,000 (5.5%) were called active. Inconclusive results, whose numbers are uncertain, are shown with a selection of clear calls. Calls follow the shape of the dose curve; as a rule, active = well fitted inhibition curve with a large enough effect; inconclusive = small, poorly fitted or top-dose-only effect, or effect the other way; inactive = no such curve, though single readings can be large or run the other way. A potency beside an inconclusive call is a rough fit, not a confirmed value.
Each compound was assayed against Nuclear receptor ROR-gamma (Mus musculus) (UniProt P51450) (assay: qHTS for inhibitors of ROR gamma transcriptional activity). Conditions: Drosophila S2 Gal4-RORgamma UAS-luciferase reporter, 20 h; activity change, negative = inhibition: at 53.6 µM (top of the series).
How it was run: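 Read-out: Photinus luciferase luminescence; inhibitors lower reporter signal. Insect Schneider cells with Gal4-ROR gamma fusion under metallothionein promoter, UAS reporter; 700 uM final copper sulfate induction, 20 hr, ambient temperature.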
% is scaled to controls: 0 for no effect and ±100 for the full control effect; potency is read from the fitted curve at half-maximal effect.
Also: nearly all actives have a fitted effect of over 60% in size.

Protein sequences, listed by entry. Tags and fused reporters are not part of them. Lines headed by an entry give the natural chain unless they say otherwise; changes in a name come on top.
UniProt P51450: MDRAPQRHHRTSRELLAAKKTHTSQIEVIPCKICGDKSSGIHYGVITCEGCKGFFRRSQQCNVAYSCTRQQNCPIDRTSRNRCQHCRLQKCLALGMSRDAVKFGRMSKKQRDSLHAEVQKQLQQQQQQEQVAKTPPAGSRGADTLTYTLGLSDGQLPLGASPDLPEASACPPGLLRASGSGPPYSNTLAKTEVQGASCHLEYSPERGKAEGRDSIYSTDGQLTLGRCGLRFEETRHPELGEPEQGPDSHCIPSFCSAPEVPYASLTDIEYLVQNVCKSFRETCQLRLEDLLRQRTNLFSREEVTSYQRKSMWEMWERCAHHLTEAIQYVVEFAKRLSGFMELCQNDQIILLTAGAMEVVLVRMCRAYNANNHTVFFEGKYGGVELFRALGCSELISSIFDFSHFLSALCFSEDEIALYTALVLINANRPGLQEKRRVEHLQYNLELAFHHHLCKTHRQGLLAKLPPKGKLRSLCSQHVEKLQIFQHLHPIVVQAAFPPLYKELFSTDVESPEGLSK

Row | Compound | Potency | activity change, negative = inhibition
1 | CCOC(=O)c1cccc(NC(=O)CSc2nnnn2C)c1 | inconclusive: 11.2 µM [activator, single point] | 
2 | CCOC(=O)Nc1ccc(S(=O)(=O)NC2CCCCC2)cc1 | inconclusive: 35.5 µM [activator, single point] | 
3 | Fc1ccc(Nc2nc(NCc3ccco3)c3ccccc3n2)cc1 | inconclusive: 35.5 µM [inhibitor, single point] | 
4 | Cc1nn(CC(=O)Nc2ccc3c(c2)OCO3)c(C)c1Cl | inactive | 
5 | COc1ccc(/C=C/C(=O)NC(=S)NNC(=O)c2ccco2)cc1 | active: 3.16 µM | 
6 | COc1ccc2c(c1)c1ncn(CCN3CCCC3)c(=O)c1n2C | inconclusive: 0.1 µM [inhibitor, full curve, poor fit] | 
7 | COc1ccccc1C(=O)Nc1ccncc1 | inconclusive: 0.282 µM [activator, single point] | 
8 | CCOc1ccc(NC(=S)N(Cc2ccc(Cl)cc2)Cc2ccco2)cc1 | active: 12.6 µM | 
9 | COC(=O)c1sccc1NC(=O)c1cc2c(s1)CCCC2 | inconclusive: 7.94 µM [activator, partial curve] | 
10 | COc1ccc(C2c3[nH]c4ccccc4c3CCN2C(=O)c2cn3ccccc3n2)c(F)c1 (configuration not stated) | inconclusive: 20 µM [activator, single point] | 
11 | Cc1ccc(C(=O)N/N=C\c2ccccc2[N+](=O)[O-])cn1 | active: 10 µM | 
12 | C=CCNc1nc(-c2cccc(OC)c2O)nc2ccccc12 | inactive | 
13 | CCSc1nnc(-c2ccccc2N)c(=O)[nH]1 | inconclusive: 14.1 µM [activator, partial curve] | 
14 | N#Cc1cc2c(nc1SCc1ccc(Cl)nc1)CCCCC2 | inconclusive: 12.6 µM [activator, single point] | 
15 | O=C(C1CCCN(S(=O)(=O)c2cccc3nsnc23)C1)N1CC=C(c2ccccc2)CC1 (configuration not stated) | inconclusive: 17.8 µM [activator, partial curve] | 
16 | O=C(N/N=C/c1cccnc1)c1ccc2ccccc2c1O | inconclusive: 35.5 µM [inhibitor, single point] | 
17 | C/C(=C\C(=O)c1ccccc1)Nc1ccc(Br)c(Cl)c1 | inactive | 
18 | CCOc1ccccc1-c1nnc2n1N=C(c1ccccc1OC)CS2 | inconclusive: 35.5 µM [inhibitor, single point] | 
19 | CCOC(=O)c1c(C)[nH]c(=S)c(C#N)c1-c1ccc(OC)cc1 | active: 12.6 µM | 
20 | Cc1cc(C)cc(NC(=S)NCCc2c[nH]c3ccccc23)c1 | active: 7.08 µM | 
21 | CC(C)=CCc1c(O)ccc2c1OC(c1ccc(O)c(O)c1)CC2=O (configuration not stated) | inconclusive: 35.5 µM [inhibitor, single point] | 
22 | O=C(NN1C(=O)/C(=C\c2cccnc2)SC1=S)c1ccco1 | inconclusive: 11.2 µM [inhibitor, single point] | 
23 | Cc1cc(C)n2nc(C(=O)OCC(=O)c3cc(C)n(CC4CCCO4)c3C)nc2n1 (configuration not stated) | inconclusive: 17.8 µM [activator, single point] | 
24 | CC(=O)C1=C(C)NC(SCC(=O)Nc2nccs2)=C(C#N)C1c1ccccc1Cl (configuration not stated) | inconclusive: 22.4 µM [inhibitor, single point] | 

Row | Compound | Potency | activity change, negative = inhibition
25 | COc1cnc(-c2ccccc2)nc1Sc1ccccc1 | inconclusive: 3.98 µM [activator, full curve, poor fit] | 
26 | CCc1cc(=O)oc2cc(C)cc(OCC(=O)N3CCC(C(=O)NC(C)C)(c4ccccc4)CC3)c12 | inactive | 
27 | COc1cc(OC)c(NC(=O)C(=O)CC(=O)c2ccc(C)cc2C)cc1Cl | inconclusive: 35.5 µM [inhibitor, single point] | 
28 | COc1ccc(-n2c(C)cc(C(=O)COC(=O)Cn3cnc4ccccc43)c2C)cc1 |  | inactive: -12.6% [at 0.365 µM]
29 | Cc1ccc(-c2nn(-c3cccc(F)c3)cc2CN(Cc2nccn2C)C(C)C)o1 | active: 5.62 µM | 
30 | CCOc1ccc(C(=O)Nc2cccc(C)n2)cc1 | active: 8.91 µM | 
31 | CC1=C(C(=O)OC(C)C)C(c2cccs2)NC(=S)N1 (configuration not stated) | active: 12.6 µM | 
32 | Cc1ccc(Cn2c(NCCCn3ccnc3)nc3c2c(=O)n(C)c(=O)n3C)cc1 | inactive | 
33 | O=C(CCc1ccccc1)NNC(=O)Cc1ccccc1 | inactive | 
34 | C=CCn1c(SC/C=C/c2ccccc2)nnc1-c1sc(N)nc1C | inconclusive: 12.6 µM [activator, partial curve] | 
35 | CCNC(=O)CCn1nc(-c2ccc(C)cc2)c2ccccc2c1=O | inconclusive: 14.1 µM [activator, single point] | 
36 | Cc1cccc(N2C(=O)CC(Sc3ncn[nH]3)C2=O)c1 (configuration not stated) | active: 12.6 µM | 
37 | O=C(Nc1ccccc1)[C@@]12C[C@@H]1/C(=N/O)c1ccccc1O2 | inconclusive: 17.8 µM [activator, partial curve, poor fit] | 
38 | O=C(Nc1ccc2c(c1)OCO2)c1noc2c1CCCC2 | inactive | 
39 | Nc1nc2ccccc2n1C(=O)c1ccccc1 | active: 0.631 µM | 
40 | CC(Nc1ccc2c(c1)OCCO2)C(=O)Nc1ccc2c(c1)OCO2 (configuration not stated) | inconclusive: 15.8 µM [activator, partial curve, poor fit] | 
41 | CCn1cc(C(=O)NCCCN2CCCC(C)C2)c(=O)c2cc(S(=O)(=O)N(C)C3CCCCC3)ccc21 (configuration not stated) | inactive | 
42 | CCSc1nnc(NC(=O)c2nn(C(C)C)c(=O)c3ccccc23)s1 | inconclusive: 22.4 µM [inhibitor, single point] | 
43 | Cc1cccc(NC(=O)c2ccc(CN3CCc4ccccc4C3)cc2)c1C | inactive | 
44 | Cc1cccc(Nc2nc(N)nc(CSC(=S)N3CCOCC3)n2)c1 | inconclusive: 10 µM [activator, partial curve, poor fit] | 
45 | Oc1ccc(/C=N/NC(=S)Nc2cccnc2)cc1 | inconclusive: 3.55 µM [inhibitor, partial curve, poor fit] | 
46 | COC(=O)C1=C(C)N(Cc2ccccc2)[C@]23O[C@](C(=O)OC)(C(=O)N2C1c1ccccc1)C1CCCC(=O)C13 (some centres not stated) | inconclusive: 4.47 µM [activator, single point] | 
47 | COc1cc(/C=N\NC(=O)c2ccc(-c3ccccc3)cc2)ccc1OCC(N)=O | inconclusive: 35.5 µM [inhibitor, single point] | 

Part of the list above, with tabs.
Row	Compound	Potency	activity change, negative = inhibition
45	Oc1ccc(/C=N/NC(=S)Nc2cccnc2)cc1	inconclusive: 3.55 µM [inhibitor, partial curve, poor fit]	
46	COC(=O)C1=C(C)N(Cc2ccccc2)[C@]23O[C@](C(=O)OC)(C(=O)N2C1c1ccccc1)C1CCCC(=O)C13 (some centres not stated)	inconclusive: 4.47 µM [activator, single point]	
47	COc1cc(/C=N\NC(=O)c2ccc(-c3ccccc3)cc2)ccc1OCC(N)=O	inconclusive: 35.5 µM [inhibitor, single point]	
